Some entries share one result that the patent states for a list of compounds.
Assays:
Type in all cases: in vivo
[1] = test system: Cowpea Aphid (Aphis craccivora); assay: Cowpea aphid spray test on potted cowpea plants; settings: 500 ppm, population reduction assessed after 24, 72 and 120 hours
Experimental: If not otherwise specified the test solutions were prepared as follows:
The active compound was dissolved at the desired concentration in a mixture of 1:1 (vol:vol) distilled water: acetone. The test solution was prepared at the day of use and in general at concentrations of ppm (wt/vol).
Potted cowpea plants colonized with 100-150 aphids of various stages were sprayed after the pest population had been recorded. Population reduction was assessed after 24, 72, and 120 hours.

[2] = test system: Cotton Aphid (Aphis gossypii, Mixed Life Stages); assay: Cotton aphid spray test on infested cotton plants; settings: 300 ppm, after 5 days
Experimental: (§1) The active compounds were formulated in cyclohexanone as a 10,000 ppm solution supplied in 1.3 ml ABgene® tubes. These tubes were inserted into an automated electrostatic sprayer equipped with an atomizing nozzle and they served as stock solutions for which lower dilutions were made in 1:1 (vol:vol) water: acetone. A nonionic surfactant (Kinetic®) was included in the solution at a volume of 0.01% (v/v).
Cotton plants at the cotyledon stage were infested with aphids prior to treatment by placing a heavily infested leaf from the main aphid colony on top of each cotyledon. Aphids were allowed to transfer overnight to accomplish an infestation of 80-100 aphids per plant and the host leaf was removed. The infested plants were then sprayed by an automated electrostatic plant sprayer equipped with an atomizing spray nozzle. The plants were dried in the sprayer fume hood, removed from the sprayer, and then maintained in a growth room under fluorescent lighting in a 24-hr photoperiod at 25° C. and 20-40% relative humidity. Aphid mortality on the treated plants, relative to mortality on untreated control plants, was determined after 5 days.

[3] = test system: Silverleaf Whitefly (Bemisia argentifolii, Adult); assay: Silverleaf whitefly test on sprayed cotton plants; settings: 300 ppm; 3 days after treatment
Experimental: as §1
Cotton plants at the cotyledon stage (one plant per pot) were sprayed by an automated electrostatic plant sprayer equipped with an atomizing spray nozzle. The plants were dried in the sprayer fume hood and then removed from the sprayer. Each pot was placed into a plastic cup and 10 to 12 whitefly adults (approximately 3-5 days […]) were introduced. The insects were collected using an aspirator and 0.6 cm, nontoxic Tygon® tubing (R-3603) connected to a barrier pipette tip. The tip, containing the collected insects, was then gently inserted into the soil containing the treated plant, allowing insects to crawl out of the tip to reach the foliage for feeding. Cups were covered with a reusable screened lid (150-micron mesh polyester screen PeCap from Tetko, Inc.). Test plants were maintained in a growth room at 25° C. and 20-40% relative humidity for 3 days, avoiding direct exposure to fluorescent light (24 hour photoperiod) to prevent trapping of heat inside the cup. Mortality was assessed 3 days after treatment, compared to untreated control plants.

[4] = test system: Vetch Aphid (Megoura viciae); assay: Vetch aphid bean leaf disk microtiter test; settings: 800 ppm; leaf disks sprayed with 2.5 μl; 6 days
Experimental: The active compounds were formulated in 3:1 (vol:vol) water: DMSO with different concentrations of formulated compounds.
Bean leaf disks were placed into microtiterplates filled with 0.8% agar-agar and 2.5 ppm OPUS™. The leaf disks were sprayed with 2.5 μl of the test solution and 5 to 8 adult aphids were placed into the microtiter plates which were then closed and kept at 23±1° C. and 50±5% relative humidity under fluorescent light for 6 days. Mortality was assessed on the basis of vital, reproduced aphids. Aphid mortality and fecundity was then visually assessed.

[5] = test system: Green Peach Aphid (Myzus persicae); assay: Green peach aphid spray test on infested bell pepper plants; settings: 300 ppm, after 5 days
Experimental: as §1
Bell pepper plants at the first true-leaf stage were infested prior to treatment by placing heavily infested leaves from the main colony on top of the treatment plants. Aphids were allowed to transfer overnight to accomplish an infestation of 30-50 aphids per plant and the host leaves were removed. The infested plants were then sprayed by an automated electrostatic plant sprayer equipped with an atomizing spray nozzle. The plants were dried in the sprayer fume hood, removed, and then maintained in a growth room under fluorescent lighting in a 24 hour photoperiod at 25° C. and 20-40% relative humidity. Aphid mortality on the treated plants, relative to mortality on untreated control plants, was determined after 5 days.

Measured: mortality in comparison with untreated controls

FC(F)COc1ccc2nn(-c3cccnc3)cc2n1 [I-D41]
at least 75%: all assays above

CC(C)Sc1ccc2nc(-c3cccnc3)cn2n1 [I-E34]
not listed: [2]
at least 75%: all other assays above

CCOC(COc1ccc2nn(-c3cccnc3)cc2n1)OCC [I-D15]
at least 75%: all assays above

COC1CCC(Oc2ccc3nn(-c4cccnc4)cc3n2)CC1 (centres unmarked) [I-D49]
at least 75%: all assays above

FC(F)(F)SCCOc1ccc2nn(-c3cccnc3)cc2n1 [I-D40]
at least 75%: all assays above

COC(=O)CCSc1ccc2nn(-c3cccnc3)cc2c1 [I-B6]
at least 75%: [1] | [2] | [3]

CCOCCSc1ccc2nc(-c3cccnc3)cn2n1 [I-E26]
at least 75%: all assays above

FC(F)(F)COc1ccc2nn(-c3cccnc3)cc2n1 [I-D44]
at least 75%: all assays above

Cc1ncccc1Oc1ccc2nn(-c3cccnc3)cc2c1 [I-B3]
at least 75%: [1] | [4]

c1cncc(-n2cc3nc(OC4CCCC4)ccc3n2)c1 [I-D13]
not listed: [5]
at least 75%: all other assays above

CCOCC[S+]([O-])c1ccc2nn(-c3cccnc3)cc2c1 (centres unmarked) [I-B2]
at least 75%: all assays above

COCCSc1ccc2nc(-c3cccnc3)cn2n1 [I-E10]
not listed: [3]
at least 75%: all other assays above

CCOCC[S+]([O-])c1cccc2nn(-c3cccnc3)cc12 (centres unmarked) [I-C3]
not listed: [2]
at least 75%: all other assays above

CNC(=O)CSc1ccc2nc(-c3cccnc3)cn2n1 [I-E8]
not listed: [3]
at least 75%: all other assays above

CC(Sc1ccc2nn(-c3cccnc3)cc2n1)c1ccccc1 (centres unmarked) [I-D53]
not listed: [2]
at least 75%: all other assays above

[O-][S+](CC(F)(F)F)c1ccc2nc(-c3cccnc3)cn2n1 (centres unmarked) [I-E16]
at least 75%: [1] | [3] | [4]

CC(Oc1ccc2nn(-c3cccnc3)cc2n1)C(F)(F)F (centres unmarked) [I-D58]
at least 75%: all assays above

Clc1cccc(Cl)c1SCCOc1ccc2nn(-c3cccnc3)cc2n1 [I-D31]
at least 75%: [1] | [3] | [4]

CC(C)Oc1ccc2nc(-c3cccnc3)cn2n1 [I-E20]
at least 75%: [1] | [4] | [5]

O=C(OCCOc1ccc2nc(-c3cccnc3)cn2n1)C1CC1 [I-E30]
at least 75%: [1]

CCOCC[S+]([O-])c1ccc2nc(-c3cccnc3)cn2n1 (centres unmarked) [I-E15]
at least 75%: [1] | [4]

CCOCCS(=O)(=O)c1cccc2nn(-c3cccnc3)cc12 [I-C4]
at least 75%: [1] | [3] | [4]

CCOc1ccc2nn(-c3cccnc3)cc2n1 [I-D1]
not listed: [1]
at least 75%: all other assays above

COCC[S+]([O-])c1ccc2nc(-c3cccnc3)cn2n1 (centres unmarked) [I-E39]
at least 75%: [1] | [2] | [5]

C=CCSc1ccc2nc(-c3cccnc3)cn2n1 [I-E12]
not listed: [2]
at least 75%: all other assays above

c1cncc(-n2cc3nc(OC4COC4)ccc3n2)c1 [I-D50]
not listed: [1]
at least 75%: all other assays above

COCCOc1ccc2nn(-c3cccnc3)cc2n1 [I-D8]
not listed: [1]
at least 75%: all other assays above

FC1(F)CC1COc1ccc2nn(-c3cccnc3)cc2n1 (centres unmarked) [I-D42]
not listed: [1]
at least 75%: all other assays above

— patent US20180368404A1, “3-PYRIDYL HETEROBICYCLIC COMPOUND FOR CONTROLLING INVERTEBRATE PESTS” (BASF SE, priority 2014, published 2018)
